From PMC8616936
Results are given in words; binding and its absence hold for the method and conditions named. In cells and extracts the contact can be indirect. A result given as binding can be weak or reduced; the word gives no strength.

Target: T1, C. elegans DROSHA (C. elegans) (UniProt O01326)
T1 sequence: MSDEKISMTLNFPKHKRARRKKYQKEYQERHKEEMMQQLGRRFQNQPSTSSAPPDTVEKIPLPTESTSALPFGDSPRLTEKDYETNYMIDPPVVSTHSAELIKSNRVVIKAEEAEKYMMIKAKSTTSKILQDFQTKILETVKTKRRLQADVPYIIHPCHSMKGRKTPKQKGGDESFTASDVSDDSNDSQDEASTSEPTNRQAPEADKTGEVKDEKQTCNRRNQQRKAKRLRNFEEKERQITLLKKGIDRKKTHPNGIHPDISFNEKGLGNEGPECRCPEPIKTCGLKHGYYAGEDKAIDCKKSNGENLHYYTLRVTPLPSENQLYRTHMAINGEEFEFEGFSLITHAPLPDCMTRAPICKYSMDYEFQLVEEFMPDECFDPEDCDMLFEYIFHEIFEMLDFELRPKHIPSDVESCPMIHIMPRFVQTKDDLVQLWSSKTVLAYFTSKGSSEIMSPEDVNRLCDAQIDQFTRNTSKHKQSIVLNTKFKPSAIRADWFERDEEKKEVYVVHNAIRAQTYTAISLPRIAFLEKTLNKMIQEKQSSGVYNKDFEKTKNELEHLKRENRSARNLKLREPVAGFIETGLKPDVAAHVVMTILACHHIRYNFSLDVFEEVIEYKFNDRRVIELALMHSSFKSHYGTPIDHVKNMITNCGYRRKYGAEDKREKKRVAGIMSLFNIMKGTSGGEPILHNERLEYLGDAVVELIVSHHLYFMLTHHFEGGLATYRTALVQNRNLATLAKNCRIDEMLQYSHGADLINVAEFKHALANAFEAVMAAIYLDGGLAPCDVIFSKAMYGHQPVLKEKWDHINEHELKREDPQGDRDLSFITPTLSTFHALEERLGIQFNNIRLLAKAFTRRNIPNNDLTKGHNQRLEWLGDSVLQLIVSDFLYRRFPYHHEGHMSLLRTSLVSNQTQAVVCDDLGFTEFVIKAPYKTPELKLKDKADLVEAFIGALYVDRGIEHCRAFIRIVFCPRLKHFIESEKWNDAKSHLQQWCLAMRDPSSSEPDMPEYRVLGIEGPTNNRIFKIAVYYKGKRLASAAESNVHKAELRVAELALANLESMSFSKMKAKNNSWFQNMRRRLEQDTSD
Assay: tandem affinity co-purification (Ni-NTA, then IgG sepharose); both proteins co-expressed in HEK293E; lysate in T500 (20 mM Tris-HCl pH 7.5, 500 mM NaCl, 4 mM beta-mercaptoethanol) with 2 ug/ml RNase A; Ni-NTA (His tag on the DGCR8 ortholog), washes with 0 and 2000 mM NaCl and 50 mM imidazole, eluted with 300 mM imidazole; eluate bound to IgG sepharose (protein G on DROSHA) at 4 °C for 4 h

binding: binds
Substance: C. elegans PASH-1
